{"source": "PubChem BioAssay AID504834", "about": "(National Center for Advancing Translational Sciences (NCATS), 2011)", "note": "Screen size: about 320,000 compounds; about 22,000 (6.9%) were called active. The shares of active, inactive and inconclusive entries below differ from those in the screen. The call rests on the fitted dose curve; in most records, active means well fitted inhibition curve with a large enough effect; inconclusive means small, poorly fitted or top-dose-only effect, or another doubt; inactive means no such curve, though single readings can be large or run the other way. A potency beside an inconclusive call is a rough fit, not a confirmed value.", "data": [{"assay": "Primary qHTS for delayed death inhibitors of the malarial parasite plastid, 96 hour incubation; further: potency means the concentration at half of the fitted maximal effect", "conditions": "P. falciparum luciferase reporter growth; series mostly up to 28.7 µM", "how_it_was_run": "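Infected RBCs, 2% Hct / 0.05% parasitemia final; luciferase-reporter P. falciparum; cpd 96 h, 37 C, 5% CO2; luciferase detection reagent; luminescence.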", "values": [{"compound": "COc1cccc(NC(=O)C(NC2CCCC2)c2ccccc2)c1", "note": "(stereo not drawn)", "Potency": "inconclusive: 9.28 µM [inhibitor, single point]"}, {"compound": "CCOP(=O)(OCC)c1nc(-c2cccc3ccccc23)oc1NCCc1ccc(OC)cc1", "Potency": "inconclusive: 11.7 µM [inhibitor, single point]"}, {"compound": "Cc1cc(S(=O)(=O)NCCN(C)C)c(C)s1", "Potency": "inconclusive: 0.0828 µM [inhibitor, full curve, poor fit]"}, {"compound": "CCOc1ccc(NC(=O)CSc2nnnn2C2CC2)cc1S(=O)(=O)N1CCCC1", "Potency": "active: 14.7 µM"}, {"compound": "O=C(Nc1csc(Cc2c(Cl)cccc2Cl)n1)NN1CCOCC1", "Potency": "inconclusive: 16.5 µM [inhibitor, partial curve, poor fit]"}, {"compound": "COc1ccc(C(=O)Cc2ccc(F)cc2)c(OC)c1", "Potency": "inconclusive: 18.5 µM [inhibitor, single point]"}, {"compound": "CC(=O)NCc1ccc(S(=O)(=O)N/N=C/c2ccc(N(C)C)cc2)cc1", "Potency": "inactive"}, {"compound": "C/C(=N\\NC(=O)COc1c(C)cccc1C)c1cccs1", "Potency": "inconclusive: 5.22 µM [inhibitor, partial curve, poor fit]"}, {"compound": "CCCCNC(=S)N(CCO)Cc1cc2cc3c(cc2[nH]c1=O)OCCO3", "Potency": "inconclusive: 10.4 µM [inhibitor, single point]"}, {"compound": "Cc1ccc(S(=O)(=O)N/N=C/c2ccc(C#N)cc2)cc1", "Potency": "inconclusive: 11.7 µM [inhibitor, single point]"}, {"compound": "CSCc1ccc(C(=O)N2CCCC(Nc3ccc(F)cc3)C2)o1", "note": "(stereo not drawn)", "Potency": "inactive"}, {"compound": "Nc1nonc1-n1nnc(C(=O)N/N=C/c2cccnc2)c1-c1ccccc1", "Potency": "active: 11.7 µM"}, {"compound": "O=C(NNS(=O)(=O)c1ccc([N+](=O)[O-])cc1)C1CCCCC1", "Potency": "inconclusive: 14.7 µM [inhibitor, single point]"}, {"compound": "O=C(COC(=O)c1ccccc1-n1cnnn1)c1ccc(F)c(F)c1", "Potency": "inactive"}, {"compound": "CC1(C)CC(=O)C(C=NCCN2CCN(C(=S)Nc3ccccc3)CC2)=C(O)C1", "Potency": "inactive"}, {"compound": "COc1ccc([N+](=O)[O-])c(OC)c1C(=O)Nc1ccc(F)cc1F", "Potency": "inactive"}, {"compound": "O=C(C(O)c1ccccc1)N1N=C(c2ccccc2)CC1(O)C(F)(F)F", "note": "(stereo not drawn)", "Potency": "inactive"}, {"compound": "COc1ccc(NC(=O)C(=O)NCC(c2ccco2)N2CCc3ccccc3C2)cc1", "note": "(stereo not drawn)", "Potency": "inconclusive: 8.28 µM [inhibitor, partial curve, poor fit]"}, {"compound": "COc1cccc(C(=O)O/N=C(\\N)CS(=O)(=O)c2ccccc2)c1", "Potency": "inactive"}, {"compound": "COc1ccc(F)cc1C(=O)C1CCCN(Cc2cnc(C)s2)C1", "note": "(stereo not drawn)", "Potency": "inconclusive: 18.5 µM [inhibitor, single point]"}, {"compound": "Cc1ccc(Nc2nc(-c3c(C)n(C)n(-c4ccccc4)c3=O)c(C)s2)cc1", "Potency": "inconclusive: 14.7 µM [inhibitor, single point]"}, {"compound": "O=S(=O)(c1cnc[nH]1)N1CCc2ccccc21", "Potency": "active: 8.28 µM"}, {"compound": "CC(Sc1cccc[n+]1[O-])c1ccccc1", "note": "(stereo not drawn)", "Potency": "inconclusive: 18.5 µM [inhibitor, single point]"}, {"compound": "COc1cccc(CNCc2ccc(OC)c3ccccc23)c1OC", "Potency": "inconclusive: 13.1 µM [inhibitor, single point]"}, {"compound": "CCCCn1c(N)c(N(CC(C)C)C(=O)CN(C)Cc2cccc(OC)c2)c(=O)[nH]c1=O", "Potency": "inconclusive: 18.5 µM [inhibitor, single point]"}, {"compound": "NC(=O)C1CCN(C2=C(Cl)C(=O)c3ccccc3C2=O)CC1", "Potency": "inconclusive: 11.7 µM [inhibitor, single point]"}, {"compound": "CN1CCN(S(=O)(=O)Cc2ccc(Cl)cc2)CC1", "Potency": "inconclusive: 18.5 µM [inhibitor, single point]"}, {"compound": "C=CCOc1ccc(/C=C/C(=O)OCC(=O)N(C)C2CCS(=O)(=O)C2)cc1", "note": "(stereo not drawn)", "Potency": "inactive"}, {"compound": "CCOC(=O)c1oc2ccccc2c1NC(=O)c1cc(OC)cc(OC)c1", "Potency": "inconclusive: 3.7 µM [inhibitor, partial curve, poor fit]"}, {"compound": "COc1ccccc1N1CCN(C(=O)CCc2nnc3ccc(N4CCCC4)nn23)CC1", "Potency": "inconclusive: 18.5 µM [inhibitor, single point]"}, {"compound": "COc1ccc(C(=O)NCCCN2CCOCC2)cc1S(=O)(=O)N1CCCc2ccccc21", "Potency": "inconclusive: 11.7 µM [inhibitor, single point]"}, {"compound": "O=C1C2CCCCN2C(=O)N1CCCCN1CCN(c2cccc(Br)c2)CC1", "note": "(stereo not drawn)", "Potency": "inconclusive: 14.7 µM [inhibitor, partial curve, poor fit]"}, {"compound": "CC(=O)c1c(C)[nH]c(C(=O)OCC(=O)Nc2cc(S(=O)(=O)N3CCCCC3)ccc2C)c1C", "Potency": "inconclusive: 18.5 µM [inhibitor, partial curve, poor fit]"}, {"compound": "CC1CCN(S(=O)(=O)c2ccc(N/N=C(/C#N)C(N)=O)cc2)CC1", "Potency": "inconclusive: 3.29 µM [inhibitor, single point]"}, {"compound": "CCCNS(=O)(=O)c1ccc(OCC(=O)N2CCN(Cc3ccc4c(c3)OCO4)CC2)c(C)c1", "Potency": "inconclusive: 11.7 µM [inhibitor, single point]"}, {"compound": "O=C(NCc1ccccc1F)Nc1ccc([N+](=O)[O-])cc1", "Potency": "active: 13.1 µM"}, {"compound": "CCOc1ccc(C2CC(c3cccc(OC)c3)n3nc(N)nc3N2)cc1", "note": "(stereo not drawn)", "Potency": "inactive"}, {"compound": "O=C(O)c1ccc(CNCc2ccc(Cl)cc2)cc1", "Potency": "inconclusive: 0.928 µM [inhibitor, full curve, poor fit]"}, {"compound": "COc1ccccc1NS(=O)(=O)c1ccc(C)c(C(=O)NC2CCN(Cc3ccccc3)CC2)c1", "Potency": "inconclusive: 10.4 µM [inhibitor, partial curve]"}, {"compound": "Cc1cc(NC(=O)CSc2nc3c(c(=O)n2-c2ccc(Br)cc2)SCC3)no1", "Potency": "inactive"}, {"compound": "Cc1[nH]nc2c1C(c1ccsc1)C1=C(CC(C)(C)CC1=O)N2", "note": "(stereo not drawn)", "Potency": "inconclusive: 11.7 µM [inhibitor, single point]"}, {"compound": "O=C(Nc1ccc(Cl)c(Cl)c1)OCCNC(=O)c1ccncc1", "Potency": "inactive"}, {"compound": "CCOc1ccc2nc3c(cc2c1)CN(CCCO)C(=NCCOC)S3", "Potency": "inconclusive: 18.5 µM [inhibitor, single point]"}, {"compound": "C#CCOCCOCCOCCNc1nc(N2CCN(C(=O)[C@H](C(C)C)n3cc(CCO)nn3)CC2)nc(N2CCN(C(=O)[C@H](C(C)C)n3cc(CCO)nn3)CC2)n1", "Potency": "inactive"}, {"compound": "CC(=O)Nc1ccc(S(=O)(=O)NCCC(=O)OCC(=O)c2cccc(Br)c2)cc1", "Potency": "inactive"}, {"compound": "Cc1cc(C)cc(NC(=O)C(c2ccccc2)N2CCN(CC(=O)N3CCCC3)CC2)c1", "note": "(stereo not drawn)", "Potency": "inconclusive: 14.7 µM [inhibitor, single point]"}, {"compound": "Cc1nc2scc(-c3ccc(C(C)(C)C)cc3)c2c(=O)n1N", "Potency": "inactive"}, {"compound": "Cc1cccc(N2C(=O)c3ccc(C(=O)Nc4c[nH]c(=O)[nH]c4=O)cc3C2=O)c1", "Potency": "inactive"}, {"compound": "O=C(N/N=C\\c1cc(Br)c(Br)o1)C1COc2ccccc2O1", "note": "(stereo not drawn)", "Potency": "inconclusive: 8.28 µM [inhibitor, partial curve, poor fit]"}, {"compound": "CCCc1nc(NCCCOCC)c2nnn(Cc3ccccc3)c2n1", "Potency": "active: 11.7 µM"}, {"compound": "c1ccc(CCc2cc3ccccc3[nH]2)cc1", "Potency": "inconclusive: 5.22 µM [inhibitor, single point]"}, {"compound": "Cc1cc(C)c(C#N)c(SCC(=O)Nc2ccc(S(=O)(=O)Nc3onc(C)c3C)cc2)n1", "Potency": "inconclusive: 18.5 µM [inhibitor, single point]"}, {"compound": "CN(C(=O)CN1C(=O)/C(=C/c2ccc(Cl)cc2)SC1=S)C1CCS(=O)(=O)C1", "note": "(stereo not drawn)", "Potency": "inconclusive: 18.5 µM [inhibitor, single point]"}, {"compound": "CCOC(=O)N1CCN(C(=O)CN(c2ccc(C)cc2)S(=O)(=O)c2c(C)noc2C)CC1", "Potency": "inconclusive: 18.5 µM [inhibitor, single point]"}, {"compound": "CCOc1ccc(N2CC(C(=O)NCCCc3ccccc3)CC2=O)cc1", "note": "(stereo not drawn)", "Potency": "inconclusive: 5.86 µM [inhibitor, partial curve]"}, {"compound": "Cc1cccc(-c2nc(CS(=O)CC(=O)NCCc3ccccc3)c(C)o2)c1", "note": "(stereo not drawn)", "Potency": "active: 5.22 µM"}, {"compound": "Cc1ccc(C(=O)N2CCN(C34CC5CC(CC(C5)C3)C4)CC2)o1", "Potency": "inconclusive: 18.5 µM [inhibitor, single point]"}, {"compound": "Cc1ccc(C23CC4CC(CC(NC(=O)NCCN(C)C)(C4)C2)C3)cc1", "Potency": "inconclusive: 18.5 µM [inhibitor, single point]"}, {"compound": "CC(CCCC(C)(C)O)NCc1cn[nH]c1-c1ccc2c(c1)OCO2", "note": "(stereo not drawn)", "Potency": "inconclusive: 18.5 µM [inhibitor, single point]"}, {"compound": "COc1ccc(C(=O)Nc2nc(C)c(C(=O)N(C)C)s2)cc1OC", "Potency": "inconclusive: 18.5 µM [inhibitor, single point]"}, {"compound": "S=c1[nH]nc(C2CCCCC2)n1/N=C/c1cccc(Br)c1", "Potency": "inconclusive: 11.7 µM [inhibitor, partial curve, poor fit]"}, {"compound": "CC(C)c1ccc(C(=O)Nc2cccnc2)cc1", "Potency": "active: 10.4 µM"}, {"compound": "CC[n+]1c(/C=C2\\C=C(C)CC(C)C2)sc2ccccc21", "note": "(stereo not drawn)", "Potency": "inconclusive: 14.7 µM [inhibitor, partial curve, poor fit]"}, {"compound": "Cc1ccc(-n2[nH]c(C)c(C=Nc3cc(C)ccn3)c2=O)cc1", "Potency": "active: 7.38 µM"}, {"compound": "O=C(c1ccc(CNS(=O)(=O)c2cccc(Cl)c2)cc1)N1CCCCC1", "Potency": "inactive"}, {"compound": "CNc1ccc(/C=C/C(=O)c2cccc3ccccc23)cc1[N+](=O)[O-]", "Potency": "inconclusive: 18.5 µM [inhibitor, single point]"}, {"compound": "CC(C)(C)c1ccc(C(=O)NNC(=O)c2cccc(Br)c2)cc1", "Potency": "inactive"}, {"compound": "O=S(=O)(c1cccs1)N1CN(CC2CCCO2)c2nc3ccccc3nc21", "note": "(stereo not drawn)", "Potency": "inconclusive: 10.4 µM [inhibitor, single point]"}]}]}
